Results reported in publication PMC12233908.
These are yes or no findings as the source states them, for the method shown. In cells and extracts the contact can be indirect. Some entries that bind do so weakly or less than the wild type. For some of these results: Tags and fused reporters may be left off the sequences shown.

Sequences of proteins named here, by UniProt entry; tags and fusion partners are left off. Residues count along the entry.
UniProt P56818, residues 46-501: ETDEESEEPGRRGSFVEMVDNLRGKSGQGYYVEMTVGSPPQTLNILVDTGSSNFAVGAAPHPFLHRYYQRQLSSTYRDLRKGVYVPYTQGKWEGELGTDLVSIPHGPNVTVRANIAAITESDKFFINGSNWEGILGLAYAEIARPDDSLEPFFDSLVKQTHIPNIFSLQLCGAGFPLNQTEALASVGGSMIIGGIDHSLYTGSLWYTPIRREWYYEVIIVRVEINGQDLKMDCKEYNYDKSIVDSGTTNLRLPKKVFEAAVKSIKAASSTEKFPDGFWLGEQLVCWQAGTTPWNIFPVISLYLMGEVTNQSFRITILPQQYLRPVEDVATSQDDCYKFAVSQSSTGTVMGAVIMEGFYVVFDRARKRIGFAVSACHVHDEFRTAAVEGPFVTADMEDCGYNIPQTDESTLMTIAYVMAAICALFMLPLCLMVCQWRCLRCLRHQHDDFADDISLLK

Columns and labels:
[1] = molecular target: β-site APP-cleaving enzyme 1 (BACE1), endogenous in mouse brain (mouse (endogenous in brain)) (UniProt P56818); assay: co-IP; in vivo co-immunoprecipitation from brain lysates of Gnb5F/F and Gnb5-CCKO mice; endogenous proteins
[2] = molecular target: Myc-BACE1 (UniProt P56818); assay: co-IP; HEK293T cells co-transfected with tagged constructs; lysis in 20 mM Tris-HCl pH 7.4, 100 mM NaCl, 1 mM EDTA, 0.5% NP-40; anti-Myc or anti-HA antibody 12 h at 4 °C, Dynabeads Protein G; western blot

B1: G protein subunit β5 (Gnb5), endogenous in mouse brain (protein, UniProt P62881-2 1-353)
chain: MATDGLHENETLASLKSEAESLKGKLEEERAKLHDVELHQVAERVEALGQFVMKTRRTLKGHGNKVLCMDWCKDKRRIVSSSQDGKVIVWDSFTTNKEHAVTMPCTWVMACAYAPSGCAIACGGLDNKCSVYPLTFDKNENMAAKKKSVAMHTNYLSACSFTNSDMQILTASGDGTCALWDVESGQLLQSFHGHGADVLCLDLAPSETGNTFVSGGCDKKAMVWDMRSGQCVQAFETHESDVNSVRYYPSGDAFASGSDDATCRLYDLRADREVAIYSKESIIFGASSVDFSLSGRLLFAGYNDYTINVWDVLKGSRVSILFGHENRVSTLRVSPDGTAFCSGSWDHTLRVWA
binding [1]: binds

B2: HA-Gnb5 (protein, UniProt P62881-2 1-353)
chain: MATDGLHENETLASLKSEAESLKGKLEEERAKLHDVELHQVAERVEALGQFVMKTRRTLKGHGNKVLCMDWCKDKRRIVSSSQDGKVIVWDSFTTNKEHAVTMPCTWVMACAYAPSGCAIACGGLDNKCSVYPLTFDKNENMAAKKKSVAMHTNYLSACSFTNSDMQILTASGDGTCALWDVESGQLLQSFHGHGADVLCLDLAPSETGNTFVSGGCDKKAMVWDMRSGQCVQAFETHESDVNSVRYYPSGDAFASGSDDATCRLYDLRADREVAIYSKESIIFGASSVDFSLSGRLLFAGYNDYTINVWDVLKGSRVSILFGHENRVSTLRVSPDGTAFCSGSWDHTLRVWA
binding [2]: binds

B3: Gnb5 (28-102aa), first WD domain (domain or fragment, UniProt P62881-2 28-102)
chain: EERAKLHDVELHQVAERVEALGQFVMKTRRTLKGHGNKVLCMDWCKDKRRIVSSSQDGKVIVWDSFTTNKEHAVT
binding [2]: binds

B4: Gnb5 (28-102aa&p.S81L) (domain or fragment, UniProt P62881-2 28-102)
chain: EERAKLHDVELHQVAERVEALGQFVMKTRRTLKGHGNKVLCMDWCKDKRRIVSLSQDGKVIVWDSFTTNKEHAVT
binding [2]: no binding
